Reference: PubChem BioAssay AID602196 (INSERM, 2012)
Screen: 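Genes whose knock-down alters cisplatin killing of lung cancer cells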. Cell system: human A549 lung cancer cells. Knock-down reagent: siRNA pair against human genes. Time to read-out: 48 h transfection before cisplatin; time from cisplatin to read-out not stated. Challenge: cisplatin at a dose killing half of control-siRNA cells; exact dose and duration not given. Read-out: 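Shift in cisplatin death relative to control siRNA, from -50 (all cells die) to +50 (no cells die); siRNAs harmful on their own scored 0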. Scale: two-siRNA summed score (-2 to +2): higher = both siRNAs protect from cisplatin killing; -2 means both sensitise; mean protection from cisplatin (shift in death) and protection from cisplatin (shift in death), siRNA C and protection from cisplatin (shift in death), siRNA D: higher = protection from cisplatin killing. Hit rule: 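Each siRNA scores 0 if harmful alone by LDH or WST-1, otherwise +1 if it reduces and -1 if it increases cisplatin killing; a gene is active when both siRNAs agree (sum +2 or -2)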. Calls: active = both siRNAs shift cisplatin killing the same way; inactive = no consistent shift, or siRNA harmful alone.
Shown is an unselected part of about 23,000 reagents tested. In the full data, 455 (2%) are marked active. 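Active includes both protection and sensitisation; some change values fall well beyond the stated -50 to +50 range.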 A number with no mark means an inactive call. Reagent sequences are not shown. The record does not give: the amount of reagent.

gene symbol | two-siRNA summed score (-2 to +2) | mean protection from cisplatin (shift in death) (%) | protection from cisplatin (shift in death), siRNA C (%) | protection from cisplatin (shift in death), siRNA D (%)
SIX4 (SIX homeobox 4) | 0 | 5.4 | 3.4 | 7.4
SLC35E2A | -1 | -5.9 | -14.3 | 2.5
EHD2 (EH domain containing 2) | 0 | 4.1 | 2.9 | 5.3
TIMP2 (TIMP metallopeptidase inhibitor 2) | 0 | 2.3 | 4.2 | 0.4
MDH2 (malate dehydrogenase 2) | -1 | -13.7 | -10 | -17.4
ARHGEF16 (Rho guanine nucleotide exchange factor 16) | 1 | 14.1 | 19.5 | 8.8
LOC440677 | 0 | 17.8 | 12.7 | 23
KCTD4 (potassium channel tetramerization domain containing 4) | 0 | -0.3 | 5.1 | -5.6
ARCN1 (archain 1 coat protein complex I subunit delta) | 0 | 1.1 | 4.6 | -2.5
SPACA5 (sperm acrosome associated 5) | 0 | -8.1 | -13.1 | -3
MMP15 (matrix metallopeptidase 15) | 0 | -7.7 | -8.7 | -6.8
LOC441052 | 0 | 6.7 | 18.3 | -4.8
KIAA1755 | 0 | 9.7 | -5.5 | 24.9
LOC440427 | 0 | 11.6 | 14.5 | 8.8
SPACA1 (sperm acrosome associated 1) | 0 | -5.6 | -0.8 | -10.5
MAU2 | 0 | 16.9 | 11 | 22.7
DNAJB3P (DnaJ heat shock protein family (Hsp40) member B3, pseudogene) | 0 | 12.5 | 3.5 | 21.5
LOC401859 | 1 | 16.9 | 8.7 | 25.1
DPP7 (dipeptidyl peptidase 7) | 0 | 4.4 | -5.2 | 14.1

3 entries already listed, arranged by “two-siRNA summed score (-2 to +2)”, highest first:
gene symbol | two-siRNA summed score (-2 to +2) | mean protection from cisplatin (shift in death) (%) | protection from cisplatin (shift in death), siRNA C (%) | protection from cisplatin (shift in death), siRNA D (%)
LOC401859 | 1 | 16.9 | 8.7 | 25.1
MAU2 | 0 | 16.9 | 11 | 22.7
DNAJB3P (DnaJ heat shock protein family (Hsp40) member B3, pseudogene) | 0 | 12.5 | 3.5 | 21.5

More records follow.
gene symbol | two-siRNA summed score (-2 to +2) | mean protection from cisplatin (shift in death) (%) | protection from cisplatin (shift in death), siRNA C (%) | protection from cisplatin (shift in death), siRNA D (%)
SPATA2 (spermatogenesis associated 2) | 1 | 6.1 | 0.4 | 11.8
LOC399789 | 0 | 15.3 | 12.4 | 18.1
PRR14 (proline rich 14) | 0 | 2.8 | 2.9 | 2.7
CDK5 (cyclin dependent kinase 5) | 0 | 1.9 | 10.9 | -7.2
TRADD (TNFRSF1A associated via death domain) | 0 | -3.3 | -4.6 | -2.1
POU2AF2 (POU class 2 homeobox associating factor 2) | 1 | 15.3 | 29.1 | 1.5
ENOX2 (ecto-NOX disulfide-thiol exchanger 2) | 0 | 7.4 | 20.1 | -5.3
GOLT1B (golgi transport 1B) | 0 | 6 | 9.3 | 2.7
LOC387974 | 0 | 12.5 | 15.6 | 9.5
CTSS (cathepsin S) | 0 | 1.8 | 3.2 | 0.3
NRGN (neurogranin) | 0 | -4.7 | 4.8 | -14.2
LOC391481 | 0 | 1.1 | -16.7 | 18.8
EPB41L4A-DT (EPB41L4A divergent transcript) | 1 | 15.5 | 11.9 | 19.1
FANCM (FA complementation group M) | 0 | 2.1 | 0.2 | 4
RNF166 (ring finger protein 166) | 0 | 0.8 | 2 | -0.5
LOC387649 | 1 | 2 | 12.6 | -8.7
LOC442718 | 0 | 4.2 | 3.2 | 5.1
KLHL8 (kelch like family member 8) | 0 | 3.3 | 7.4 | -0.9
LARP7 (La ribonucleoprotein 7, transcriptional regulator) | 1 | 8.4 | 19.1 | -2.3
OR7G2 (olfactory receptor family 7 subfamily G member 2) | 0 | 0.9 | 5.6 | -3.7
HYLS1 (HYLS1 centriolar and ciliogenesis associated) | 0 | 8.9 | 22.8 | -5
UBA1 (ubiquitin like modifier activating enzyme 1) | 0 | 10.5 | 17.8 | 3.2
LOC391175 | 1 | 12.8 | 19.2 | 6.4
CDY1 (chromodomain Y-linked 1) | -1 | 1.6 | 12.4 | -9.3
CRABP1 (cellular retinoic acid binding protein 1) | -1 | -5.8 | -13.3 | 1.8
SIGLEC9 (sialic acid binding Ig like lectin 9) | -1 | -9.6 | -29.3 | 10
MGC26484 | 1 | 9.1 | 21.3 | -3.1
RGP1 (RGP1 partner of RAB6A GEF complex) | 0 | -2.1 | -5.2 | 1
LOC285045 | 1 | 10.6 | 21.9 | -0.7
HIPK4 (homeodomain interacting protein kinase 4) | 1 | 9.4 | 5.2 | 13.5
MBLAC2 (metallo-beta-lactamase domain containing 2) | 1 | 9.4 | 3.6 | 15.3
METTL3 | 0 | -1.4 | -6.2 | 3.5
SQSTM1 (sequestosome 1) | 0 | -12.3 | -9.5 | -15.1
MED28 (mediator complex subunit 28) | 0 | 2.1 | 0.6 | 3.6
POLR1C (RNA polymerase I and III subunit C) | -1 | -4.9 | 10.3 | -20.2
AK8 (adenylate kinase 8) | 0 | 6.1 | -1.8 | 14
SLCO5A1 | 0 | 7.3 | 8.3 | 6.2
PMPCB (peptidase, mitochondrial processing subunit beta) | -1 | -14.2 | -29.5 | 1.1
